The results in this text go back to the supplement of paper PMC7666118.

By UniProt entry, the sequences of proteins in these tests, tags left out. Where a name states a change or a piece, a line headed by the entry shows the natural chain unless it says otherwise.
UniProt Q15819: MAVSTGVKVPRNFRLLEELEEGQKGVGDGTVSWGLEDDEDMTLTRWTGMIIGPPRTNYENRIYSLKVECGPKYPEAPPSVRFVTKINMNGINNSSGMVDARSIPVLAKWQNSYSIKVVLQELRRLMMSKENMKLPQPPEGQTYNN
UniProt Q8NFA0: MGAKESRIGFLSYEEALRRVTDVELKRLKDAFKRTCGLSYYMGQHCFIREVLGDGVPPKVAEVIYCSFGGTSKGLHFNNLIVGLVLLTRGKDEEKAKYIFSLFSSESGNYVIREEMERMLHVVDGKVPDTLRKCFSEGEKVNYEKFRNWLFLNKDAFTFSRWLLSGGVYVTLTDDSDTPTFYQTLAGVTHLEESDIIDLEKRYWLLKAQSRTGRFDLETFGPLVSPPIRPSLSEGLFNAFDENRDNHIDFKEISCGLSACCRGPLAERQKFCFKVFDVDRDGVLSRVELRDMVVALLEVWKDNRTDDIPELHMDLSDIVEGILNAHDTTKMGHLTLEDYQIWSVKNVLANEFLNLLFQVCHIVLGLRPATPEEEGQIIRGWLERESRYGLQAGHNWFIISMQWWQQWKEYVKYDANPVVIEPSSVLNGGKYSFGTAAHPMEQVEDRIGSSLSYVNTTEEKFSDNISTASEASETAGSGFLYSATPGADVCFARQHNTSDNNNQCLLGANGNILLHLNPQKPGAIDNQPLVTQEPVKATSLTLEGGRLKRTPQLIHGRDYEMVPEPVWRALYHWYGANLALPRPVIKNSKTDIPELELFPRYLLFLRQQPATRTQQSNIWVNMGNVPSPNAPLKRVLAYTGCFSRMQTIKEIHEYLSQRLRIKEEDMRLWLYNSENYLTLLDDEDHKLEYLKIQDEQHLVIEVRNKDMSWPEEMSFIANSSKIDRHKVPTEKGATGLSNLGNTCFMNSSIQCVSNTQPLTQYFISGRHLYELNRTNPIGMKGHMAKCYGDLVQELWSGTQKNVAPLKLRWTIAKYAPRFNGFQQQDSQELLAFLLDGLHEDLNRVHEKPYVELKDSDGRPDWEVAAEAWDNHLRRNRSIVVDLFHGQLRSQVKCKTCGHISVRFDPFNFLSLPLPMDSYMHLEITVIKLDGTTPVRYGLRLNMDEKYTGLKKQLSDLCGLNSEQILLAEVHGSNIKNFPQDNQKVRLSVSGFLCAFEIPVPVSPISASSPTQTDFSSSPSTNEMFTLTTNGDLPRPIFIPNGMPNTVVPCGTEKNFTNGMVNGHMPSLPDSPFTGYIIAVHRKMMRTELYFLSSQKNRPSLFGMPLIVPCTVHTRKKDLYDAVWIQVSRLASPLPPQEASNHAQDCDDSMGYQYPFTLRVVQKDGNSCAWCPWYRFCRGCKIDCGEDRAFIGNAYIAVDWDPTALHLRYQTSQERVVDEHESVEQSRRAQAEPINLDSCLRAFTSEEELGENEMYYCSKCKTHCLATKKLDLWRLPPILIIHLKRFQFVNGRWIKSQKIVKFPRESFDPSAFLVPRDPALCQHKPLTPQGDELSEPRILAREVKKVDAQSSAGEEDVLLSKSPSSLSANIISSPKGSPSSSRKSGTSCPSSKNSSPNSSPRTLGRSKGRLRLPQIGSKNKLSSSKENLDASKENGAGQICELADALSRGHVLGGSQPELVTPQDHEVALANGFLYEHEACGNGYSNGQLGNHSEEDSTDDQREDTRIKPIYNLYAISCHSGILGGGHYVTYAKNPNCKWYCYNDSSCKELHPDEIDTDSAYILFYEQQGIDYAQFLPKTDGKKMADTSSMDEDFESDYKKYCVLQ
UniProt Q4G0F5, whole entry: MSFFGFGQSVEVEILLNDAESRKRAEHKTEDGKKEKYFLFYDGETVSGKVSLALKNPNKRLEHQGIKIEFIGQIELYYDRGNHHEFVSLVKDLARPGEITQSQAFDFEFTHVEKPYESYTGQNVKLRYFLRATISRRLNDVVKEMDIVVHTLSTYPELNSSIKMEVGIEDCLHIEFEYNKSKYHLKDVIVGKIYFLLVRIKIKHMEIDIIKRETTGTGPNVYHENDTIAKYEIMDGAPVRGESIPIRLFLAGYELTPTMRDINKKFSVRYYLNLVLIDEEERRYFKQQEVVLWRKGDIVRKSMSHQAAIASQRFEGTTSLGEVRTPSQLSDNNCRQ
UniProt Q86WB0: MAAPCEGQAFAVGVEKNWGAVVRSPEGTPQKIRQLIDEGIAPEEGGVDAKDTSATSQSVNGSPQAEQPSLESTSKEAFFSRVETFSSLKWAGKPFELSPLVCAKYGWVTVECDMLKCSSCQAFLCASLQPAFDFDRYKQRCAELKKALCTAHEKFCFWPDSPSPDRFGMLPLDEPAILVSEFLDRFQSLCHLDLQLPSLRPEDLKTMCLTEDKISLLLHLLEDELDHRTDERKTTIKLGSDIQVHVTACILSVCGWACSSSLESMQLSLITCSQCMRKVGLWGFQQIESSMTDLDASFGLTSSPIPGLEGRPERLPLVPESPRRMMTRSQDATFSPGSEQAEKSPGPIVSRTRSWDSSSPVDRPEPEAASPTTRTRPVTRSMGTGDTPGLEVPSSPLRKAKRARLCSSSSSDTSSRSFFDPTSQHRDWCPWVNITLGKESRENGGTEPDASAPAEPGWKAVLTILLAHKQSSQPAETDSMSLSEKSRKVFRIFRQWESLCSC
UniProt Q96RL7: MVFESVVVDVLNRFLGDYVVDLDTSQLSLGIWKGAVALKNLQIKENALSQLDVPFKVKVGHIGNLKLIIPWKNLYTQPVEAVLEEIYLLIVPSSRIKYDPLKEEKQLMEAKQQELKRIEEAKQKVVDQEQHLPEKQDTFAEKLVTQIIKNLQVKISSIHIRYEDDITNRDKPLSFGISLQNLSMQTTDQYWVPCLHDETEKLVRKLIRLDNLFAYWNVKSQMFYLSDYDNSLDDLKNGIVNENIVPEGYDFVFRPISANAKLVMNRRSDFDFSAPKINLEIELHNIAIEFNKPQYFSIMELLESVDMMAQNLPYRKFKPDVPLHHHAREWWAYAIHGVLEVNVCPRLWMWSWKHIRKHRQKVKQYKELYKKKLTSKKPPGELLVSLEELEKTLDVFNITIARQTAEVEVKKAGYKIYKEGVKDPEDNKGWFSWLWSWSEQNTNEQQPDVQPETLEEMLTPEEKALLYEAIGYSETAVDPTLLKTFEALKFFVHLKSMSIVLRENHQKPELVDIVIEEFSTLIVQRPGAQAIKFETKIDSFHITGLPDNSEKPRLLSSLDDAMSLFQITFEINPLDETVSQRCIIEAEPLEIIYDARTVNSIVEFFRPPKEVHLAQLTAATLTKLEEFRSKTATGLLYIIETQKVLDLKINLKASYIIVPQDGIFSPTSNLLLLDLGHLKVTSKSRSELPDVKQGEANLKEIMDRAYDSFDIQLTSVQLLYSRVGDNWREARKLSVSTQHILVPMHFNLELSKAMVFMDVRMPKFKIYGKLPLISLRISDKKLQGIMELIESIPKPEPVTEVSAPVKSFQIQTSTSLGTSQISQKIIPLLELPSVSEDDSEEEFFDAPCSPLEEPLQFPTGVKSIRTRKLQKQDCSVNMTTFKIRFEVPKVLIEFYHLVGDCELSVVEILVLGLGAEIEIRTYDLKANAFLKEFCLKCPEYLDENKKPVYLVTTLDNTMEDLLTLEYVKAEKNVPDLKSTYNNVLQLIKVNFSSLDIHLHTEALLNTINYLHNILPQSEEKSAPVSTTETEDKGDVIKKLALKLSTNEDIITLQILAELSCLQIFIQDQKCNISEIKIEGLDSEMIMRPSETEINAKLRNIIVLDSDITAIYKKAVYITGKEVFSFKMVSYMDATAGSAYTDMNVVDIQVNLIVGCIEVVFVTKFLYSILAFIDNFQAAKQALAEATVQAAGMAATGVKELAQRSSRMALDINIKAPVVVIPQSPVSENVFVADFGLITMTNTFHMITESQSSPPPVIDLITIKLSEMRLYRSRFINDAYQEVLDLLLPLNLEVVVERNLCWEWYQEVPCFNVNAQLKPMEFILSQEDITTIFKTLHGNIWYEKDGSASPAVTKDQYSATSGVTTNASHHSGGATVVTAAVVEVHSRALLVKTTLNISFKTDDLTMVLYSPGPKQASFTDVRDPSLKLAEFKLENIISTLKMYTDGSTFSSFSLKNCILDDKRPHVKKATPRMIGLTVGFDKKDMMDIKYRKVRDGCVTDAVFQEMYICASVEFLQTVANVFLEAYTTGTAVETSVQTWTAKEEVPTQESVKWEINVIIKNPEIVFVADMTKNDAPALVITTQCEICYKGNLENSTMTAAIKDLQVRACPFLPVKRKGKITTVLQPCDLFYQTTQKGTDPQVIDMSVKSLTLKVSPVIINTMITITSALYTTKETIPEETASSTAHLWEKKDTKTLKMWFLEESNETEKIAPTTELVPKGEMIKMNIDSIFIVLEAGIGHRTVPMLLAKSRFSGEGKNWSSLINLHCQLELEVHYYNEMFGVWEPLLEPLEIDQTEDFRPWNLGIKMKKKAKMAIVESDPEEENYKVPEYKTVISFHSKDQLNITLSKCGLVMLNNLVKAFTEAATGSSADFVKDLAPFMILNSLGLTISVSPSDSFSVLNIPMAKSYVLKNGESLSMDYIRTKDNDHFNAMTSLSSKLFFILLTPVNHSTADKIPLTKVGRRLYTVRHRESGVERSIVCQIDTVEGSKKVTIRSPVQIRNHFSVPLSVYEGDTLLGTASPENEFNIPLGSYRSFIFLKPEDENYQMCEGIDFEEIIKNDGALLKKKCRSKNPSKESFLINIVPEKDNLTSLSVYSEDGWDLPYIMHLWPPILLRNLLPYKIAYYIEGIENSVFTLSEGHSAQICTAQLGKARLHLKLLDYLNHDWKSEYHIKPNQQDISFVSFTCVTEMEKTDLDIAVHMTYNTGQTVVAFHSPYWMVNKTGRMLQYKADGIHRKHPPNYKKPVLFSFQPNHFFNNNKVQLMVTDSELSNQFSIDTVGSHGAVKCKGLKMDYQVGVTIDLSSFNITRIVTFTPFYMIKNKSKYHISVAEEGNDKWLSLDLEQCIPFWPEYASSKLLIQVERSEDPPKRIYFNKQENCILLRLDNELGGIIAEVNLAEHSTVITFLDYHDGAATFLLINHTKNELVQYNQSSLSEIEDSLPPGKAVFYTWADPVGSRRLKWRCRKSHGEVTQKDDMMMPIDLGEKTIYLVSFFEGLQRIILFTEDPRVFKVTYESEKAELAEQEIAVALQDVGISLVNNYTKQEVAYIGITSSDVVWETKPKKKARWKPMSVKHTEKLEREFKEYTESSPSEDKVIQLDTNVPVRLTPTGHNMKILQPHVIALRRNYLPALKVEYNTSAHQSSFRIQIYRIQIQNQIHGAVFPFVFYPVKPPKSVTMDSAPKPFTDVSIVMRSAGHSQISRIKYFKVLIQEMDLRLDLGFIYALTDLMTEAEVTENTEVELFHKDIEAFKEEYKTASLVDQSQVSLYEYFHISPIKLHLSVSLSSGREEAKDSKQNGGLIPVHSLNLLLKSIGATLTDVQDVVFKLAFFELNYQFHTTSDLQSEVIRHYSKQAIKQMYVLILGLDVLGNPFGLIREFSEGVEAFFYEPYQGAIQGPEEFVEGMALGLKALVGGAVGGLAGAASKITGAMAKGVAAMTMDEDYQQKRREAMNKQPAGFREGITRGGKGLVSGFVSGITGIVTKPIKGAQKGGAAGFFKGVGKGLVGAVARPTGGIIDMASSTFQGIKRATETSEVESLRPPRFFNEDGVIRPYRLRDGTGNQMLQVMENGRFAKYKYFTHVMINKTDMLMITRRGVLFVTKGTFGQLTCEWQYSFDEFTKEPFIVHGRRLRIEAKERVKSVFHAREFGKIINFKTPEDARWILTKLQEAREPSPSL
UniProt Q8N1B4: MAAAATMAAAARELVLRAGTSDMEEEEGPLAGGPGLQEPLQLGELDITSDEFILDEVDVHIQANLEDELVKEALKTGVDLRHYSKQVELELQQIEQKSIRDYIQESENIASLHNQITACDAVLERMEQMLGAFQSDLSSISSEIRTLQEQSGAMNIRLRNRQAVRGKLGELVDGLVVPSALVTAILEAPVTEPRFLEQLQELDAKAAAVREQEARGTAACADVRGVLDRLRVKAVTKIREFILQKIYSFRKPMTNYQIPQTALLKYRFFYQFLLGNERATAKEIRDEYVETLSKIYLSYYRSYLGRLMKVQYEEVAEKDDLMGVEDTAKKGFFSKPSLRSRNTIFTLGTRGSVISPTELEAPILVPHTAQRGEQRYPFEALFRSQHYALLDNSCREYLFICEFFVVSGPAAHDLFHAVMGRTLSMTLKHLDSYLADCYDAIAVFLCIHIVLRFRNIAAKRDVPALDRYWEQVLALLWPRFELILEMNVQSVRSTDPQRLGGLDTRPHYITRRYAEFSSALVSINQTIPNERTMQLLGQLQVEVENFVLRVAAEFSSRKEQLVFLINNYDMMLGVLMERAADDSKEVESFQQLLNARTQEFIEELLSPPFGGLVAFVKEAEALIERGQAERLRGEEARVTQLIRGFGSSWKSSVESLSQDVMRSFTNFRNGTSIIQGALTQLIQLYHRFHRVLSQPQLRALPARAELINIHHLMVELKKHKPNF

The other results are listed elsewhere or left out.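 The calls were made as follows: active = dose-dependent thermal stabilisation significant by F-test of dose-response against flat model at 10% FDR; inactive = not significant.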

Compound in the assay: Nc1nc2c(ncn2[C@@H]2O[C@H](COP(=O)(O)OP(=O)(O)OP(=O)(O)O)[C@@H](O)[C@H]2O)c(=O)[nH]1
The assay is described as follows: dose-dependent thermal stabilisation call (2D-TPP, DLPTP, 10% FDR) (binary (1 = stabilised)); higher = stabilised by the compound. As to conditions: system: Jurkat gel-filtered lysate; concentration range 1-500 µM. The procedure:
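2D thermal proteome profiling in gel-filtered Jurkat E6.1 lysate (2 mg/ml) treated with NaGTP (0, 1, 10, 100, 500 uM) for 10 min at room temperature, then heated 3 min at one of 12 temperatures (42-63.9 C). Soluble protein was quantified by TMT10 MS. The value is the DLPTP call of the paper: dose-dependent thermal stabilisation over all temperatures at 10% FDR (F-test of a dose-response against a flat model); one experiment, one call per tested protein.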
Consider UBE2T (UniProt Q9NPD8), for which the “dose-dependent thermal stabilisation call” value was inactive: 0.
For UBLCP1 (UniProt Q8WVY7) the value was inactive: 0; for UBE2V2 (UniProt Q15819), inactive: 0; for UFL1 (UniProt O94874), inactive: 0.
Take ZC3H11A (UniProt O75152): the “dose-dependent thermal stabilisation call” value is inactive: 0.
For ZC3H10 (UniProt Q96K80) the value was inactive: 0.
For ZBTB8OS (UniProt Q8IWT0) the value was active: 1.
For USP32 (UniProt Q8NFA0) the value was inactive: 0.
For WIZ (UniProt O95785), the “dose-dependent thermal stabilisation call” value was inactive: 0.
As to VPS26B (UniProt Q4G0F5), the “dose-dependent thermal stabilisation call” value is inactive: 0.
Take ZC3HC1 (UniProt Q86WB0): the “dose-dependent thermal stabilisation call” value is inactive: 0.
For ULBP2 (UniProt Q9BZM5) the value was inactive: 0.
Next, VRK1 (UniProt Q99986): inactive: 0; ZFAND2B (UniProt Q8WV99): inactive: 0.
Next, VPS25 (UniProt Q9BRG1): inactive: 0; VPS26A (UniProt O75436): inactive: 0.
Regarding USP25 (UniProt Q9UHP3), the “dose-dependent thermal stabilisation call” value is inactive: 0.
For XPOT (UniProt O43592) the value was inactive: 0; for UBR2 (UniProt Q8IWV8), inactive: 0; for VLDLR (UniProt P98155), inactive: 0.
For UNG (UniProt P13051), the “dose-dependent thermal stabilisation call” value was active: 1.
VMAC (UniProt Q2NL98): the “dose-dependent thermal stabilisation call” value is inactive: 0.
For VARS2 (UniProt Q5ST30) the value was inactive: 0; for WDFY1 (UniProt Q8IWB7), inactive: 0; for VPS13A (UniProt Q96RL7), inactive: 0.
For VPS52 (UniProt Q8N1B4) the value was inactive: 0.
Next, WIPF1 (UniProt O43516): inactive: 0; UBR3 (UniProt Q6ZT12): inactive: 0; WDR45B (UniProt Q5MNZ6): inactive: 0.
Turning to ZC3H13 (UniProt Q5T200), the “dose-dependent thermal stabilisation call” value was inactive: 0.
For the target UBE2M (UniProt P61081), the “dose-dependent thermal stabilisation call” value was inactive: 0.
Next, UBE2K (UniProt P61086): active: 1.
For UHRF1BP1L (UniProt A0JNW5) the value was inactive: 0; for WDR33 (UniProt Q9C0J8), inactive: 0.
With VCL (UniProt P18206), the “dose-dependent thermal stabilisation call” value is inactive: 0.
For UBR7 (UniProt Q8N806) the value was inactive: 0.
As for USP13 (UniProt Q92995), the “dose-dependent thermal stabilisation call” value was active: 1.
WASHC4 (UniProt Q2M389): the “dose-dependent thermal stabilisation call” value was inactive: 0.
For WDR18 (UniProt Q9BV38) the value was inactive: 0; for UNC13D (UniProt Q70J99), inactive: 0.
